PubChem BioAssay AID602196 – INSERM, 2012
Purpose: 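Genes whose knock-down alters cisplatin killing of lung cancer cells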. System: human A549 lung cancer cells. Reagents: siRNA pair against human genes. Duration: 48 h transfection before cisplatin; time from cisplatin to read-out not stated. Conditions: cisplatin at a dose killing half of control-siRNA cells; exact dose and duration not given. Read-out: 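Cisplatin cell death as a shift from the 50% death seen with control siRNA; siRNAs toxic or growth-blocking alone scored 0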. Reading the numbers: two-siRNA summed score (-2 to +2): higher = both siRNAs protect from cisplatin killing; -2 means both sensitise; mean protection from cisplatin (shift in death) and protection from cisplatin (shift in death), siRNA C and protection from cisplatin (shift in death), siRNA D: higher = protection from cisplatin killing. Call rule: 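siRNAs harmful alone (LDH or WST-1) get 0; others get +1 for less and -1 for more cisplatin killing; genes are active when the two siRNAs give the same sign, summing to ±2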. Calls: active = both siRNAs shift cisplatin killing the same way; inactive = no consistent shift, or siRNA harmful alone.
The deposit covers about 23,000 reagents; below is a random part of them. Over the whole deposit, 455 (2%) got an active call. 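Active includes both protection and sensitisation; some change values fall well beyond the stated -50 to +50 range.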 Not stated in the record: the amount of reagent.

Gene | two-siRNA summed score (-2 to +2) | mean protection from cisplatin (shift in death) (%) | protection from cisplatin (shift in death), siRNA C (%) | protection from cisplatin (shift in death), siRNA D (%) | outcome
ZNF205 (zinc finger protein 205) | 0 | -9.5 | -20.1 | 1.1 | inactive
DCAF8L1 (DDB1 and CUL4 associated factor 8 like 1) | 0 | 10.5 | 18.8 | 2.2 | inactive
LOC440450 | 0 | 5.8 | -4.7 | 16.4 | inactive
LOC392434 | 0 | 6.9 | -0.6 | 14.5 | inactive
ARHGEF9 (Cdc42 guanine nucleotide exchange factor 9) | 0 | 5.8 | 16.1 | -4.6 | inactive
LRRC41 (leucine rich repeat containing 41) | 1 | 8.7 | 14.3 | 3.1 | inactive
GSG1 (germ cell associated 1) | 0 | 0.7 | 1.9 | -0.5 | inactive
QPCTL (glutaminyl-peptide cyclotransferase like) | 0 | -10.4 | -5.7 | -15.1 | inactive
LOC201175 | 0 | 10.4 | 9.7 | 11.1 | inactive
ZC4H2 (zinc finger C4H2-type containing) | 0 | 4.1 | 16.2 | -8.1 | inactive
TMEM209 (transmembrane protein 209) | 0 | 3.6 | 1 | 6.2 | inactive
DSE (dermatan sulfate epimerase) | 0 | 2.6 | 11.1 | -5.8 | inactive
MSI1 (musashi RNA binding protein 1) | 0 | -5.9 | -3.3 | -8.5 | inactive
PYCR2 (pyrroline-5-carboxylate reductase 2) | 0 | -2 | 4.1 | -8.1 | inactive
PPP4R1L (protein phosphatase 4 regulatory subunit 1 like (pseudogene)) | 0 | 4.2 | -5.9 | 14.4 | inactive
MAB21L2 (mab-21 like 2) | 0 | 8.5 | 4.7 | 12.2 | inactive
CALM1 (calmodulin 1) | -1 | -8.3 | -7.2 | -9.4 | inactive
FUNDC2 (FUN14 domain containing 2) | 0 | 3.8 | 1 | 6.5 | inactive
NEFM (neurofilament medium chain) | 0 | 1.1 | -4.7 | 6.9 | inactive
CD40LG (CD40 ligand) | 0 | -3 | -4 | -2 | inactive
CLPTM1 (CLPTM1 regulator of GABA type A receptor forward trafficking) | 1 | 1.7 | 18.3 | -14.9 | inactive
FIBCD1 (fibrinogen C domain containing 1) | 0 | 13.1 | 33.4 | -7.3 | inactive
FBXL21P (F-box and leucine rich repeat protein 21, pseudogene) | 0 | 5.9 | -3 | 14.7 | inactive
INPP5F (inositol polyphosphate-5-phosphatase F) | 1 | 12.6 | -0.1 | 25.3 | inactive
KRT4 (keratin 4) | 1 | 15.2 | 20.5 | 9.9 | inactive
LYZL6 (lysozyme like 6) | 0 | 7.8 | 7 | 8.5 | inactive
IGHV3OR16-11 (immunoglobulin heavy variable 3/OR16-11 (pseudogene)) | 1 | 16.8 | 7.7 | 26 | inactive
LOC441566 | 0 | 7.2 | 1.9 | 12.4 | inactive
C1QTNF9B (C1q and TNF related 9B) | 0 | 16.5 | 6.5 | 26.6 | inactive
DIP2A (DIP2 acetate--CoA ligase A) | 0 | 7.5 | 13.6 | 1.3 | inactive
ADAMTS2 (ADAM metallopeptidase with thrombospondin type 1 motif 2) | 0 | 1.8 | 1.8 | 1.7 | inactive
ALLC (allantoicase) | 0 | 7.2 | -4.6 | 19.1 | inactive
NCOR1 (nuclear receptor corepressor 1) | -1 | -19.1 | -11.9 | -26.3 | inactive
LOC93463 | 0 | 2.1 | 0.3 | 4 | inactive
LOC401883 | 0 | 2.7 | 8.4 | -3.1 | inactive
LOC388284 | 2 | 27.1 | 35.8 | 18.3 | active
LOC196120 | 1 | 11.2 | 9.9 | 12.6 | inactive
NAA50 (N-alpha-acetyltransferase 50, NatE catalytic subunit) | 0 | 1.3 | 10.2 | -7.6 | inactive
LOC441668 | 1 | 9.3 | 22.5 | -3.9 | inactive
LOC150297 | 0 | 7.9 | 13.6 | 2.1 | inactive
NPHP3 (nephrocystin 3) | 0 | -8.2 | -6.7 | -9.6 | inactive
CFAP61 (cilia and flagella associated protein 61) | 0 | 6.5 | 3.4 | 9.6 | inactive

Called active (from the list above):
Gene | two-siRNA summed score (-2 to +2) | mean protection from cisplatin (shift in death) (%) | protection from cisplatin (shift in death), siRNA C (%) | protection from cisplatin (shift in death), siRNA D (%) | outcome
LOC388284 | 2 | 27.1 | 35.8 | 18.3 | active

The list goes on.
Gene | two-siRNA summed score (-2 to +2) | mean protection from cisplatin (shift in death) (%) | protection from cisplatin (shift in death), siRNA C (%) | protection from cisplatin (shift in death), siRNA D (%) | outcome
SLC34A3 | 0 | 14.2 | 10.7 | 17.7 | inactive
RAB4B (RAB4B, member RAS oncogene family) | -1 | -21.4 | -14.7 | -28.2 | inactive
HEATR3 (HEAT repeat containing 3) | 0 | 8.8 | 9 | 8.7 | inactive
NEGR1 (neuronal growth regulator 1) | 1 | 11.1 | 4.6 | 17.7 | inactive
DRC10 (dynein regulatory complex subunit 10) | 0 | 6.3 | 6.9 | 5.6 | inactive
LOC390009 | 1 | 19.1 | 23.7 | 14.5 | inactive
LOC388938 | 0 | 11.2 | 13.7 | 8.7 | inactive
LOC440027 | 0 | 15.8 | 13.3 | 18.2 | inactive
SLC75A1 | 0 | 1.5 | -4.8 | 7.7 | inactive
LOC387922 | 0 | 8.2 | 13.3 | 3 | inactive
RASA3 (RAS p21 protein activator 3) | 0 | 6.7 | 8 | 5.4 | inactive
ODAD4 (outer dynein arm docking complex subunit 4) | 0 | 9.3 | 20.8 | -2.3 | inactive
OR7A10 (olfactory receptor family 7 subfamily A member 10) | 0 | -3.4 | 13.4 | -20.3 | inactive
IKBKB (inhibitor of nuclear factor kappa B kinase subunit beta) | 0 | 0.7 | 2.7 | -1.3 | inactive
CSRNP3 (cysteine and serine rich nuclear protein 3) | 0 | 8.4 | 8.8 | 7.9 | inactive
EPM2A (EPM2A glucan phosphatase, laforin) | -2 | -16.6 | -14.3 | -18.8 | active
ARMC3 (armadillo repeat containing 3) | 0 | 4.1 | 4.4 | 3.8 | inactive
RNF186 (ring finger protein 186) | 0 | -12.9 | -11.6 | -14.1 | inactive
RXFP1 (relaxin family peptide receptor 1) | 0 | 9.4 | 10.6 | 8.3 | inactive
LOC442523 | 0 | 8.9 | 5.9 | 11.9 | inactive
ACTR2P2 (ACTR2 pseudogene 2) | 0 | 7.1 | 7.6 | 6.6 | inactive
TMEM52B (transmembrane protein 52B) | 0 | 8.7 | 5.3 | 12.2 | inactive
RAET1G (retinoic acid early transcript 1G) | 0 | -10.6 | -8.9 | -12.3 | inactive
PLCL1 (phospholipase C like 1 (inactive)) | 0 | 7.6 | 2 | 13.1 | inactive
FAM234B (family with sequence similarity 234 member B) | 0 | 9 | 7.2 | 10.7 | inactive
ETS2-AS1 (ETS2 antisense RNA 1) | 0 | 0.8 | 2.1 | -0.4 | inactive
BEST2 (bestrophin 2) | 0 | 10.3 | 3.5 | 17 | inactive
PLEKHN1 (pleckstrin homology domain containing N1) | 0 | 4 | 0.1 | 7.9 | inactive
EFNA1 (ephrin A1) | 0 | -0.8 | 5.6 | -7.2 | inactive
PFN2 (profilin 2) | 0 | 15.7 | 2.5 | 28.9 | inactive
RFC3 (replication factor C subunit 3) | 0 | 1.1 | -1.9 | 4 | inactive
